Results deposited as PubChem BioAssay AID504784 (Drosophila RNAi Screening Center, 2011).
Test: 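Genome-wide knock-down for genes giving too much or too little stored lipid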 (primary screen). Cells: Drosophila Kc167 embryonic cells. Reagents: long dsRNA against Drosophila genes, about 250 ng dsRNA per well. Duration: 4 days. Challenge: cells fed 400 µM oleic acid bound to BSA. Read-out: 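Cells imaged and segmented; ratio of lipid droplet area to nuclear area, log-transformed, then normalised as a B-score over the screen; higher means more stored lipid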. Scale: droplet/nuclear area B-score: higher = more stored lipid (overstorage).
In all, the deposit lists about 17,000 reagents; shown is an unselected part of those with a known target gene and a result. 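Each column is one replicate's B-score; the combined score over replicates was not deposited, so single values may mislead.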 Names joined by + are all predicted targets of the reagent.

no.	gene	amplicon	droplet/nuclear area B-score, replicate 1	droplet/nuclear area B-score, replicate 2	droplet/nuclear area B-score, replicate 3
1	st (scarlet)	DRSC11399	-0.98	1.88	1.09
2	CG30275	DRSC04163	0.237	-0.96	
3	CG11286	DRSC14293	0.0958	-0.806	
4	Mvb12 (Multivesicular body subunit 12)	DRSC20027	0.909	-0.527	
5	CG15646	DRSC19682	-1.26	-0.192	
6	Acp62F (Accessory gland protein 62F)	DRSC08136	-1.35	3.8	
7	s-cup (stanley-cup)	DRSC06277	0.0409	-0.144	
8	s-cup (stanley-cup)	DRSC06278	-1.53	-0.674	
9	Traf6 (TNF-receptor-associated factor 6)	DRSC18725	0.606	-0.011	
10	CG12460 (retired record)	DRSC20970	1.02	1.37	
11	CG12111	DRSC17808	-0.244	0.968	
12	PIG-G (Phosphatidylinositol glycan anchor biosynthesis class G)	DRSC06823	-1.42	-1.07	
13	Bulli	DRSC10974	-0.0472	-0.695	
14	NetA (Netrin-A)	DRSC20261	-0.299	1.11	
15	CG1907	DRSC15399	0.108		
16	Dys (Dystrophin)	DRSC15260	0.836	-0.196	
17	Dys (Dystrophin)	DRSC16218	0.551	-0.274	
18	Dys (Dystrophin)	DRSC16219	-0.777	-0.609	
19	Dys (Dystrophin)	DRSC16220	-0.143	-1.03	
20	Dys (Dystrophin)	DRSC16935	0.808	-2.96	
21	CG32104	DRSC10127	-0.22	-1.04	
22	CG32104	DRSC10128	-0.478	-0.0143	
23	Nnp-1	DRSC02165	-1.93	1.8	
24	CG31126	DRSC14623	2.78	-0.137	
25	CheA87a (Chemosensory protein A 87a)	DRSC14839	0.554	-0.547	
26	a (arc)	DRSC04667	10.9	2.6	
27	a (arc)	DRSC04668	0.86	-1.53	
28	eEF5 (eukaryotic translation elongation factor 5)	DRSC04681	-1.99	-2.15	
29	CG5103	DRSC10481	-0.533	0.261	
30	Rbbp5 (Retinoblastoma binding protein 5)	DRSC11778	-0.557	-1.4	
31	qtc (quick-to-court)	DRSC02364	0.926	1.48	
32	qtc (quick-to-court)	DRSC02365	-0.657	0.814	
33	CG32437	DRSC11760	0.245	-0.355	
34	CG32437	DRSC22020	-0.281	0.0978	
35	O-fut2 (O-fucosyltransferase 2)	DRSC18608	-0.725		
36	Act87E (Actin 87E)	DRSC22578	0.803	1.83	
37	CG15406	DRSC00420	-1.85	0.00911	
38	esc (extra sexcombs)	DRSC03529	0.232	-0.15	
39	CG32762	DRSC18298	-0.297	-0.0141	-1.5
40	Nt5c (5' nucleotidase C)	DRSC06711	0.519	3.47	
41	Polr1E (RNA polymerase I subunit E)	DRSC14506	-0.00245	1.54	
42	Polr1E (RNA polymerase I subunit E)	DRSC15358	0.887	-1.14	
43	Plzf (Promyelocytic leukemia zinc finger)	DRSC02994	0.767	-0.834	
44	pix (pixie)	DRSC10533	1.35	2.07	
45	CG11470	DRSC14313	-0.416	-1.51	
46	CG11790	DRSC14390	-1.93	-0.128	
47	frma (fra mauro)	DRSC18297	-2.19	-1.03	0.0513
48	CG42342	DRSC13165	-2.26	1.5	
49	CG42342	DRSC14378	-0.403	-1.15	
50	CG42342	DRSC15010	-0.0228	0.22	
51	CG42342	DRSC15011	0.913	0.0192	
52	CG42342	DRSC15012	0.972	-2.51	
53	CG42342	DRSC21791	0.00366	0.0308	
54	CG42342	DRSC22861	3.77	-2.93	
55	CG42342	DRSC23112	0.167	0.535	
56	CG7739	DRSC10910	0.189	-0.846	
57	Ccp84Af	DRSC12591	1.21	1.17	
58	Fis1 (Fission, mitochondrial 1)	DRSC07772	-0.213	-0.861	
59	Dnaaf4 (Dynein axonemal assembly factor 4)	DRSC02405	1.67	-0.252	
60	CG18586	DRSC10325	0.469	0.388	
61	CG13048	DRSC09929	0.364	0.557	
62	Cyp4aa1 (Cytochrome P450 4aa1)	DRSC07368	-1.87	0.755	
63	Snoo (Sno oncogene)	DRSC03004	-0.922	0.69	
64	Snoo (Sno oncogene)	DRSC03035	-0.498	0.295	
65	ND2 (retired record)	DRSC21274	0.226	-0.145	
66	CG6980	DRSC16162	2.54	-0.0893	
67	CG17928	DRSC02644	0.422	1.06	
68	CG9752	DRSC04562	-0.0017	-1.13	
69	UQCR-6.4 (Ubiquinol-cytochrome c reductase 6.4 kDa subunit)	DRSC06454	0.0104	4.34	
70	CG15699 (retired record)	DRSC06571	1.44	0.734	
71	CG9727	DRSC12585	-0.505		
72	dve (defective proventriculus)	DRSC04680	2.43	-0.509	
73	qua (quail)	DRSC03598	-1.08	0.757	
74	CG18139 (retired record) + Hmx	DRSC15307	0.935	1.59	
75	ClC-b (Chloride channel-b)	DRSC07220	4	0.598	
76	Pex2 (Peroxin 2)	DRSC10770	1.72	1.64	
77	CG17107	DRSC02575	0.309	0.116	-0.239
78	CG17107	DRSC22627	-0.529	-0.38	
79	Chs2 (Chitin synthase 2)	DRSC11830	1.06	1.38	
80	CG13566	DRSC04203	0.496	-0.204	
81	CG13581	DRSC04216	-0.21	-0.808	
82	ValRS (Valyl-tRNA synthetase)	DRSC06864	0.0302	1.34	
83	puf (puffyeye)	DRSC15875	5.9	3.61	
84	puf (puffyeye)	DRSC23167	0.0388	0.85	
85	Pu (Punch)	DRSC04645	-0.349	-4.49	
86	nw (narrow)	DRSC06749	-2.83		
87	nw (narrow)	DRSC06896	2.12	-1.58	
88	Rdl (Resistant to dieldrin)	DRSC11264	0.223	0.484	
89	CG42720 (retired record)	DRSC22549	-0.433	0.242	
90	CG15170	DRSC02471	0.451	0.00573	
91	Cdc16 (Cell division cycle 16)	DRSC16920	-0.0004	1.12	
92	Prp38 (pre-mRNA processing factor 38)	DRSC07060	0.655	0.681	
93	CG17472	DRSC02622	-1.87	-2.2	
94	CG42521	DRSC10154	0.275	-0.342	
95	Tim17a2	DRSC12252	1.14	2.56	
96	CG32073	DRSC09087	0.146	1.57	
97	CG32073	DRSC09894	-2.41	0.671	
98	YL-1	DRSC02765	0.641	-2.2	
99	CG32436	DRSC11683	-0.397	2.07	
100	CG32436	DRSC11796	-1.8	-0.503	
101	exp (expansion)	DRSC06313	0.674	0.167	
102	zen (zerknullt)	DRSC12632	1.16	-0.251	
103	CG18598	DRSC15356	-1.13	0.26	
104	CG7724	DRSC10905	0.991	0.631	-0.906
105	Pask (PAS kinase)	DRSC04337	0.834	-0.132	

No new results follow: entries from further up.
no.	gene	amplicon	droplet/nuclear area B-score, replicate 1	droplet/nuclear area B-score, replicate 2	droplet/nuclear area B-score, replicate 3
23	Nnp-1	DRSC02165	-1.93	1.8	
24	CG31126	DRSC14623	2.78	-0.137	
25	CheA87a (Chemosensory protein A 87a)	DRSC14839	0.554	-0.547	
26	a (arc)	DRSC04667	10.9	2.6	
27	a (arc)	DRSC04668	0.86	-1.53	
28	eEF5 (eukaryotic translation elongation factor 5)	DRSC04681	-1.99	-2.15	
29	CG5103	DRSC10481	-0.533	0.261	
30	Rbbp5 (Retinoblastoma binding protein 5)	DRSC11778	-0.557	-1.4	
31	qtc (quick-to-court)	DRSC02364	0.926	1.48	
32	qtc (quick-to-court)	DRSC02365	-0.657	0.814	
33	CG32437	DRSC11760	0.245	-0.355	
